Test results as given in publication doi:10.1101/2022.01.25.477668.
No constants are given. Whether binding was seen depends on the method and setting. In cells and extracts the contact can be indirect. Some binding calls cover weakened binding; strength is not graded here. For some of these results: Sequences can lack the tags named with a protein.

Sequences of proteins named here, by UniProt entry; tags and fusion partners are left off.
UniProt Q61025: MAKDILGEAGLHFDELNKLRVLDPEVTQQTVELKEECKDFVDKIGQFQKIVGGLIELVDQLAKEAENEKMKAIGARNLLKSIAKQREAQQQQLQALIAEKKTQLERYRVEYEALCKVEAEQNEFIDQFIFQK

T1: Cep78-HA (mouse) (UniProt Q6IRU7)
T1 sequence: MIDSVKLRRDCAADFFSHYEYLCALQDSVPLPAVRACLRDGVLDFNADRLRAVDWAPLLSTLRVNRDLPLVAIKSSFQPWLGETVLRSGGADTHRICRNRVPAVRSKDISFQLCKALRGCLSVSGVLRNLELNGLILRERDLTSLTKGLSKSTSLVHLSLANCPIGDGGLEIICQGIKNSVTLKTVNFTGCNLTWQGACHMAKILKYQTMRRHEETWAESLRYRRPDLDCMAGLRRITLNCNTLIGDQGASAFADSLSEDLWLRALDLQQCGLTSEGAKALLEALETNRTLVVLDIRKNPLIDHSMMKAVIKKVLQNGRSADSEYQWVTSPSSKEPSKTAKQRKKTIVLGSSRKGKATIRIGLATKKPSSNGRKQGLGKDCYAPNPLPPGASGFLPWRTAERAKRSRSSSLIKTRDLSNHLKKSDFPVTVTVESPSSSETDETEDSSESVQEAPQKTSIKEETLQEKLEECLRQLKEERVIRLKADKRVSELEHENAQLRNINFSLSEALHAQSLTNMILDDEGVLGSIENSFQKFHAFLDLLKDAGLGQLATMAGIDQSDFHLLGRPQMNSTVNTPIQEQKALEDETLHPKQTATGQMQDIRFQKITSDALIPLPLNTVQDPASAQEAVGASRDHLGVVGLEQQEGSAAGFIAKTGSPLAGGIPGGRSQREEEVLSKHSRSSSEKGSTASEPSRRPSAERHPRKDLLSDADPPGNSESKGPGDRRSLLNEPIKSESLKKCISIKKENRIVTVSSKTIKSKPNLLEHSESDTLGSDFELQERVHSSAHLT


Experiments:
Assay in all cases: co-IP
[1] = molecular target: T1, Cep78-HA (mouse)
[2] = molecular target: Ift20-HA (mouse) (UniProt Q61025)
[3] = molecular target: Ift20 (endogenous, mouse testis) (mouse (endogenous in testis)) (UniProt Q61025)

binding [1] | binding [2] | binding [3] | Molecule
binds |  |  | Ift20-Flag (from UniProt Q61025 1-132)
binds | binds |  | Ttc21a-Flag (protein, UniProt Q8C0S4 1-1314) MSSDDSSLMASIIYYSQEKYFHHVLQAANVGLERYSSDPALQFFRAYGILGEDHIHDAISELEGIQSHPDTSLCAVIALLSAHKSCDTIDIEAVQELESSLKEIRRSASSTALYYASLFLWFMGHHDKAREYVDHMLKVSSGSKEGYVLKGWVDLTSSKPHVVKKSIKYLEQGTQDTKDVLGLMGKATYFMTQQNFSGALEVANQVTLACSNFLPALVLKMKLFLARQDWDQTIETGQRILEKDENNIDAWQILAVHELVKEGNTDRAADRVRNLIKALETGEPHNPNLHLKKILVISRLCGRHQVVHRLVSGFLERIFMATPSCALVATELGYLFILHQQVKEACLWYKEAMKLEENRLAALAGSIWCQILQGQLEEAAHQLEFLKEVQQSLGKSELLVFLQALVAAKKQRLEQEATALLKEAVEVHFSSMQGLALSPEYFEKLDPLFLVCIAKEYLHFCPKQPRSPGQLVSPLLKQVAMILSPVVKVAPAMMEPLYVTAQVKFLSGELENAQSTLQRCLELDPTFVDAHLLMSQIYLAQGNFAMCSHCLELGVSHNFQVRDHPLYHFIKARALNKTGDYAEAIKTLKMIIKVPTSKAEEGRKSQSPSVRPSERASILLELVEALRLNGELHEATKIMQDAINEFSGTPEEMRITVANVDLALSKGNVDLALNMLRGITPKQPCYTEAKEKMASIYLHTRKDVRLYIGCYVELCEHLPGPHSSLLLGDAFMNIQEPEKALEVYDEAYRKNPHDASLVSRIGQAYVKTHQYAKAINYYEAAQKISGQDFLCCELAELLLKLKKYHKAEKVLKQALERDSGVKDIPSMINEVKCLLLLAKVYKSHKKEEVMETLNLALDLQSRILKRVPLEQSEMIPFQNQLAASICIQIGEHHLAEKDYDSALKSYKDALAYSPTDSKVVLELAHLYLLLGQLDLCEQRCAPLLEMEQTHERAAVMLADLMFRRQNYETAINLYHQVLEKAPDNFLVLNKLVDLLRRSGKLEEAPAFFELAKKVSSRVPLEPGFNYCQGIYFWHIGQPNEALRFLNKARKDSTWGQLATCYMVQICLNPDNEIVGGEAFESLVGDSNSASRKESQQHGVRTAEKLLREFYPHSESGQTQLRLLQNLCLLATREKANVEVALGAFIEMAQAEKDSIPALLAMAQAYILLKQVPKARTQLKRLAKVPWTVDEAEDLEKSWLLLADIYCQGGKFDLALELLRRCLQYNKSCCRAYEYMGFIMEKEQSYKDAATNYELAWKYSHQANPAIGFKLAFNYLKDKKFVDAIEVCHSVLTEHPKYPKIREEILEKAQGSLRP
 |  | binds | Ttc21a (endogenous, mouse testis) (protein, UniProt Q8C0S4 1-1314) MSSDDSSLMASIIYYSQEKYFHHVLQAANVGLERYSSDPALQFFRAYGILGEDHIHDAISELEGIQSHPDTSLCAVIALLSAHKSCDTIDIEAVQELESSLKEIRRSASSTALYYASLFLWFMGHHDKAREYVDHMLKVSSGSKEGYVLKGWVDLTSSKPHVVKKSIKYLEQGTQDTKDVLGLMGKATYFMTQQNFSGALEVANQVTLACSNFLPALVLKMKLFLARQDWDQTIETGQRILEKDENNIDAWQILAVHELVKEGNTDRAADRVRNLIKALETGEPHNPNLHLKKILVISRLCGRHQVVHRLVSGFLERIFMATPSCALVATELGYLFILHQQVKEACLWYKEAMKLEENRLAALAGSIWCQILQGQLEEAAHQLEFLKEVQQSLGKSELLVFLQALVAAKKQRLEQEATALLKEAVEVHFSSMQGLALSPEYFEKLDPLFLVCIAKEYLHFCPKQPRSPGQLVSPLLKQVAMILSPVVKVAPAMMEPLYVTAQVKFLSGELENAQSTLQRCLELDPTFVDAHLLMSQIYLAQGNFAMCSHCLELGVSHNFQVRDHPLYHFIKARALNKTGDYAEAIKTLKMIIKVPTSKAEEGRKSQSPSVRPSERASILLELVEALRLNGELHEATKIMQDAINEFSGTPEEMRITVANVDLALSKGNVDLALNMLRGITPKQPCYTEAKEKMASIYLHTRKDVRLYIGCYVELCEHLPGPHSSLLLGDAFMNIQEPEKALEVYDEAYRKNPHDASLVSRIGQAYVKTHQYAKAINYYEAAQKISGQDFLCCELAELLLKLKKYHKAEKVLKQALERDSGVKDIPSMINEVKCLLLLAKVYKSHKKEEVMETLNLALDLQSRILKRVPLEQSEMIPFQNQLAASICIQIGEHHLAEKDYDSALKSYKDALAYSPTDSKVVLELAHLYLLLGQLDLCEQRCAPLLEMEQTHERAAVMLADLMFRRQNYETAINLYHQVLEKAPDNFLVLNKLVDLLRRSGKLEEAPAFFELAKKVSSRVPLEPGFNYCQGIYFWHIGQPNEALRFLNKARKDSTWGQLATCYMVQICLNPDNEIVGGEAFESLVGDSNSASRKESQQHGVRTAEKLLREFYPHSESGQTQLRLLQNLCLLATREKANVEVALGAFIEMAQAEKDSIPALLAMAQAYILLKQVPKARTQLKRLAKVPWTVDEAEDLEKSWLLLADIYCQGGKFDLALELLRRCLQYNKSCCRAYEYMGFIMEKEQSYKDAATNYELAWKYSHQANPAIGFKLAFNYLKDKKFVDAIEVCHSVLTEHPKYPKIREEILEKAQGSLRP
